This is one part of the list. Repeats are few or missing, and single values can be far off.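 Imaging used 1,536-well plates; nuclei positive for cleaved PARP by antibody were divided by total DNA-stained nuclei to yield the apoptosis fraction. Doses for screening kept most cells viable, and cell lines differ markedly in resting and induced cleaved-PARP levels.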
Assays:
Experiment in all cases: cleaved PARP positive nuclei fraction relative to DMSO control; melanoma cells; higher = more apoptosis
Conditions in all cases: library dose: low library concentration; 72 h
[1] = system: 501Mel
[2] = system: A101D
[3] = system: A2058
[4] = system: A375
[5] = system: C32
[6] = system: CBRC013 (line from a melanoma biopsy)
[7] = system: CBRC014 (line from a melanoma biopsy)
[8] = system: CBRC016 (line from a melanoma biopsy)
[9] = system: CBRC017 (line from a melanoma biopsy)

SMILES | cleaved PARP positive nuclei fraction [1] [%] | cleaved PARP positive nuclei fraction [2] [%] | cleaved PARP positive nuclei fraction [3] [%] | cleaved PARP positive nuclei fraction [4] [%] | cleaved PARP positive nuclei fraction [5] [%] | cleaved PARP positive nuclei fraction [6] [%] | cleaved PARP positive nuclei fraction [7] [%] | cleaved PARP positive nuclei fraction [8] [%] | cleaved PARP positive nuclei fraction [9] [%]
Cn1c(Nc2ccc(C(F)(F)F)cc2)nc2cc(Oc3ccnc(-c4ncc(C(F)(F)F)[nH]4)c3)ccc21 + Oc1cc(-c2nc(-c3ccccc3)[nH]c2-c2ccncc2)ccc1Cl [L779450] (first compound 0.08 µM, partner dose 0.2 µM) | 140 | 100 | 130 | 365 | 79.5 | 238 | 120 | 168 | 126
Cn1cncc1[C@@](N)(c1ccc(Cl)cc1)c1ccc2c(c1)c(-c1cccc(Cl)c1)cc(=O)n2C [tipifarnib] + c1cc(-c2cnn3cc(-c4ccc(OCCN5CCCCC5)cc4)cnc23)ccn1 [Dorsomorphin] (first compound 0.01 µM, partner dose 0.4 µM) | 254 | 189 | 75.9 | 140 | 131 | 56.4 | 94.1 | 55.9 | 167
Nc1cccc2c1CN(C1CCC(=O)NC1=O)C2=O (stereo not drawn) [lenalidomide] + Cc1cc([N+](=O)[O-])ccc1NS(=O)(=O)c1cc(Cl)ccc1Cl [FH535] (first compound 1 µM, partner dose 1 µM) | 259 | 132 | 68.1 | 79.9 | 28.8 | 129 | 108 | 493 | 360
Cn1cncc1[C@@](N)(c1ccc(Cl)cc1)c1ccc2c(c1)c(-c1cccc(Cl)c1)cc(=O)n2C [tipifarnib] + O=C(Nc1ccccc1)c1cc([N+](=O)[O-])ccc1Cl [GW9662] (first compound 0.01 µM, partner dose 2 µM) | 98 | 138 | 102 | 188 | 94.7 | 201 | 109 | 153 | 102
CC(C)(C)c1cnc(CSc2cnc(NC(=O)C3CCNCC3)s2)o1 + CC(C)CCN1c2nc(Nc3cc(F)c(O)c(F)c3)ncc2N(C)C(=O)C1C [BID1870] (first compound 0.01 µM, partner dose 0.2 µM) | 83.5 | 89 | 101 | 71.7 | 271 | 283 | 105 | 82.1 | 84.8
Cc1cc(N2CCOCC2)cc2[nH]c(-c3c(NC[C@@H](O)c4cccc(Cl)c4)cc[nH]c3=O)nc12 + O=C1NC(=O)/C(=C/c2ccc(-c3ccc(F)cc3O)o2)S1 [AS252424] (first compound 0.2 µM, partner dose 1 µM) | 190 | 525 | 104 | 104 | 127 | 563 | 101 | 65.8 | 99.5
Cc1nc(Nc2ncc(C(=O)Nc3c(C)cccc3Cl)s2)cc(N2CCN(CCO)CC2)n1 [dasatanib] + N#Cc1c(O)c2c(-c3ccc(-c4ccccc4O)cc3)csc2[nH]c1=O [A769662] (first compound 0.004 µM, partner dose 2 µM) | 57.6 | 201 | 316 | 77.6 | 195 | 289 | 115 | 30.7 | 94.3
O=C(CCCCCCC(=O)Nc1ccccc1)NO [vorinostat] + CCCCCCCCCCCC1=C(O)C(=O)C=C(O)C1=O [Embelin] (first compound 0.08 µM, partner dose 1.2 µM) | 81.8 | 143 | 62.6 | 124 | 110 | 56.5 | 86.6 | 69.6 | 107
NC(=O)Nc1cc(-c2cccc(F)c2)sc1C(=O)N[C@H]1CCCNC1 + COc1ccc(-c2ccc3c(N4CCOCC4)nc(N4C[C@@H](C)O[C@@H](C)C4)nc3n2)cc1CO [KU0063794] (first compound 0.02 µM, partner dose 0.02 µM) | 79 | 222 | 116 | 689 | 91.2 | 88.4 | 234 | 26.9 | 94.1
Cc1ccc(NC(=O)c2cccc(N(C)C)c2)cc1NC(=O)c1ccc(O)cc1 + COc1ccc(-c2ccc3c(N4CCOCC4)nc(N4C[C@@H](C)O[C@@H](C)C4)nc3n2)cc1CO [KU0063794] (first compound 2 µM, partner dose 0.02 µM) | 116 | 299 | 43.6 | 85.6 | 140 | 194 | 231 | 59.6 | 84.8
Cn1cncc1[C@@](N)(c1ccc(Cl)cc1)c1ccc2c(c1)c(-c1cccc(Cl)c1)cc(=O)n2C [tipifarnib] + COc1ccc(-c2ccc3c(N4CCOCC4)nc(N4C[C@@H](C)O[C@@H](C)C4)nc3n2)cc1CO [KU0063794] (first compound 0.01 µM, partner dose 0.02 µM) | 95.8 | 258 | 150 | 106 | 107 | 295 | 104 | 37.5 | 89.8
C[C@@H]1CCN(C(=O)CC#N)C[C@@H]1N(C)c1ncnc2[nH]ccc12 + CCCCCCCCCCCC1=C(O)C(=O)C=C(O)C1=O [Embelin] (first compound 1 µM, partner dose 1.2 µM) | 106 | 105 | 87.3 | 444 | 192 | 44 | 96 | 36 | 88.3
O=C(Nc1cccc(Cl)c1)Nc1ncc(CCNc2ncnc3ccsc23)s1 + COc1cc(N2CCC(N3CCN(C)CC3)CC2)ccc1Nc1ncc(Cl)c(Nc2ccccc2S(=O)(=O)C(C)C)n1 [NVP-TAE684] (first compound 0.0008 µM, partner dose 0.08 µM) | 27.1 | 71.4 | 170 | 143 | 99 | 298 | 109 | 53.7 | 62.8
C#Cc1cccc(Nc2ncnc3cc(OCCOC)c(OCCOC)cc23)c1 [erlotinib] + O=S(=O)(c1ccccc1)N(CC(F)(F)F)c1ccc(C(O)(C(F)(F)F)C(F)(F)F)cc1 [T0901317] (first compound 0.8 µM, partner dose 1.4 µM) | 90.3 | 72.7 | 102 | 159 | 44.8 | 885 | 96.8 | 20.7 | 88.1
COc1cc(Nc2ncc(F)c(Nc3ccc4c(n3)NC(=O)C(C)(C)O4)n2)cc(OC)c1OC [Tamatinib] + CC(C)CCN1c2nc(Nc3cc(F)c(O)c(F)c3)ncc2N(C)C(=O)C1C [BID1870] (first compound 0.4 µM, partner dose 0.2 µM) | 46.7 | 104 | 189 | 229 | 64.2 | 68.2 | 113 | 90 | 64.9
C#Cc1cccc(Nc2ncnc3cc(OCCOC)c(OCCOC)cc23)c1 [erlotinib] + COC(=O)c1sccc1S(=O)(=O)Nc1ccc(Nc2ccccc2)cc1OC [GSK0660] (first compound 0.8 µM, partner dose 1 µM) | 61 | 556 | 94.2 | 172 | 133 | 203 | 104 | 33.3 | 86.9
O=C(CCCCCCC(=O)Nc1ccccc1)NO [vorinostat] + O=C(O)C(=O)Nc1sc2c(c1C(=O)O)CCNC2 [TCS401] (first compound 0.08 µM, partner dose 1.66667 µM) | 135 | 218 | 102 | 78.6 | 145 | 40.7 | 86.8 | 58 | 44.8
C#Cc1cccc(Nc2ncnc3cc(OCCOC)c(OCCOC)cc23)c1 [erlotinib] + N#Cc1c(O)c2c(-c3ccc(-c4ccccc4O)cc3)csc2[nH]c1=O [A769662] (first compound 0.8 µM, partner dose 2 µM) | 77.6 | 174 | 41.6 | 188 | 107 | 226 | 88 | 40.9 | 76.8
C[C@]1(c2nc3c(C(N)=O)cccc3[nH]2)CCCN1 [Veliparib] + COc1cc(N2CCC(N3CCN(C)CC3)CC2)ccc1Nc1ncc(Cl)c(Nc2ccccc2S(=O)(=O)C(C)C)n1 [NVP-TAE684] (first compound 1.4 µM, partner dose 0.08 µM) | 118 | 122 | 220 | 82.6 | 216 | 155 | 98.7 | 165 | 92.7
O=C(CCCCCCC(=O)Nc1ccccc1)NO [vorinostat] + COc1cc2ncnc(Nc3ccc(Oc4ccccc4)cc3)c2cc1OC [SrcI1] (first compound 0.08 µM, partner dose 2 µM) | 84.5 | 39.6 | 94.8 | 15.3 | 75.4 | 64.2 | 80.1 | 61.2 | 114
O=C(Nc1cccc(Cl)c1)Nc1ncc(CCNc2ncnc3ccsc23)s1 + Oc1cc(-c2nc(-c3ccccc3)[nH]c2-c2ccncc2)ccc1Cl [L779450] (first compound 0.0008 µM, partner dose 0.2 µM) | 288 | 181 | 24.1 | 119 | 69.3 | 130 | 96.9 | 178 | 156
COCC[n+]1c2c(n(Cc3cnccn3)c1C)C(=O)c1ccccc1C2=O + COc1ccc(-c2ccc3c(N4CCOCC4)nc(N4C[C@@H](C)O[C@@H](C)C4)nc3n2)cc1CO [KU0063794] (first compound 0.0004 µM, partner dose 0.02 µM) | 251 | 79.3 | 219 | 262 | 97.4 | 112 | 82.3 | 42.3 | 80.8

Some of the entries above in a different format.

| SMILES | cleaved PARP positive nuclei fraction [1] [%] | cleaved PARP positive nuclei fraction [2] [%] | cleaved PARP positive nuclei fraction [3] [%] | cleaved PARP positive nuclei fraction [4] [%] | cleaved PARP positive nuclei fraction [5] [%] | cleaved PARP positive nuclei fraction [6] [%] | cleaved PARP positive nuclei fraction [7] [%] | cleaved PARP positive nuclei fraction [8] [%] | cleaved PARP positive nuclei fraction [9] [%] |
| --- | --- | --- | --- | --- | --- | --- | --- | --- | --- |
| C#Cc1cccc(Nc2ncnc3cc(OCCOC)c(OCCOC)cc23)c1 [erlotinib] + O=S(=O)(c1ccccc1)N(CC(F)(F)F)c1ccc(C(O)(C(F)(F)F)C(F)(F)F)cc1 [T0901317] (first compound 0.8 µM, partner dose 1.4 µM) | 90.3 | 72.7 | 102 | 159 | 44.8 | 885 | 96.8 | 20.7 | 88.1 |
| O=C(Nc1cccc(Cl)c1)Nc1ncc(CCNc2ncnc3ccsc23)s1 + Oc1cc(-c2nc(-c3ccccc3)[nH]c2-c2ccncc2)ccc1Cl [L779450] (first compound 0.0008 µM, partner dose 0.2 µM) | 288 | 181 | 24.1 | 119 | 69.3 | 130 | 96.9 | 178 | 156 |
